In article PMC7819943, “Rice protein-binding microarrays: a tool to detect cis-acting elements near promoter regions in rice”:
The list shows a part of the results.

Amino acid sequences for entries named in this document (tags omitted).
UniProt Q0JBA9, entry or part of it: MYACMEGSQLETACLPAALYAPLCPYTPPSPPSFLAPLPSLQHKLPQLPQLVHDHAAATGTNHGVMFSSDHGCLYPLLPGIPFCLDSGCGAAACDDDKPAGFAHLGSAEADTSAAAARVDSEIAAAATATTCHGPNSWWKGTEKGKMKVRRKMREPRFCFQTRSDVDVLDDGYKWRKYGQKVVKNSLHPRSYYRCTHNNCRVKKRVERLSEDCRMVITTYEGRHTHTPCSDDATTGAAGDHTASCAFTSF

biological target: OsWRKY34 (Oryza sativa, UniProt Q0JBA9 1-250); test: protein-binding microarray (RPBM); PBS, 2% BSA, 51.3 ng/ul salmon testes DNA, 50 uM zinc acetate, 200 nM TF, 25 C, 1 h; high values mean tight binding; settings: protein: recombinant; tags: N-terminal polyhistidine and DsRed monomer fusion (pET32a); label: CyDye5-dUTP incorporated in the synthesized complementary strand; 3' TTTTT single-stranded linker to array surface; dsDNA, one strand shown
Outline: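 A custom Agilent array was converted to double-stranded form by primer extension with Cy5-dUTP and blocked with 2% BSA. Protein at 200 nM in PBS with 2% BSA, salmon testes DNA and 50 µM zinc acetate was applied for 1 h at 25 °C, followed by washing. The proteins were polyhistidine–DsRed N-terminal fusions of transcription factors, expressed in E. coli BL21-CodonPlus and Ni–NTA-purified. The binding signal is per-feature fluorescence intensity (arbitrary units) from an Axon 4000B scanner.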

| Sequence | binding signal |
| --- | --- |
| ATCAGTAGTCCTTTTCAAAACTGGAACCGTTGTTGCATCACGGAGTCACCTAGTGCAG | 8270 fluorescence intensity (a.u.) |
| GTGGGTTGATATCTAGAAATGTTTATACTAGGAACGAAGTCGGAGTCACCTAGTGCAG | 8880 fluorescence intensity (a.u.) |
| CTTCGCTTTCGCTCTCGCGGTCTCGCCGTCCTCCTCTTATCGGAGTCACCTAGTGCAG | 8630 fluorescence intensity (a.u.) |
| CGCCGTCGCCTCACCATCTCATCCGTCTCGAAATCCCGCCCGGAGTCACCTAGTGCAG | 8470 fluorescence intensity (a.u.) |
| GTGTGTTGTTAGCTGTAAATATTACTTCATGGAGAAAATTCGGAGTCACCTAGTGCAG | 10800 fluorescence intensity (a.u.) |
| AGAACTTCCCCTTCTCAGTGACATATGTTCCATTATCCGCCGGAGTCACCTAGTGCAG | 8870 fluorescence intensity (a.u.) |
| GATACCCTAATACCAGTTGTATTCTTTAGTTAAACTTTTTCGGAGTCACCTAGTGCAG | 8320 fluorescence intensity (a.u.) |
| TGTGGCGTTGACCACCGACGTTGAAAATGGAAGCGCACATCGGAGTCACCTAGTGCAG | 11900 fluorescence intensity (a.u.) |
| CCATTCATCAACTACACCTCACTCTCTGGCGCGTCTGCCTCGGAGTCACCTAGTGCAG | 8110 fluorescence intensity (a.u.) |
| TGGTCGTCTCGTCGTCATCGCCTCGTCGCCTCATCTCGATCGGAGTCACCTAGTGCAG | 15100 fluorescence intensity (a.u.) |
| TCTCTCCCTTATCGCTTCGCCCTTCCTTTTCCGCTCTCTTCGGAGTCACCTAGTGCAG | 8600 fluorescence intensity (a.u.) |
| GGCCGGTAGGGGTAGAACGGTCATTTCGTGCGCGGGGAGGCGGAGTCACCTAGTGCAG | 9810 fluorescence intensity (a.u.) |
| TCTTCTGAATCTTGTTTGCTTTTACCAACATGCCATGTGTCGGAGTCACCTAGTGCAG | 8100 fluorescence intensity (a.u.) |
| CCCATCATGTGACTTCCATCCTTGTTCCTAGCTGCATGCACGGAGTCACCTAGTGCAG | 9270 fluorescence intensity (a.u.) |
| GATGTCGAGCTGAGCACCACCCTAGCGGTGGAGTAGGGGACGGAGTCACCTAGTGCAG | 8240 fluorescence intensity (a.u.) |
| GTTGCAAAAGAGGCCTCTGACATGGTTCTTGCTGATGACACGGAGTCACCTAGTGCAG | 8450 fluorescence intensity (a.u.) |
| GACCATTTTTTTTCTTGTTAAACACCAATAGTACTAGTAGCGGAGTCACCTAGTGCAG | 10200 fluorescence intensity (a.u.) |
| CTGTCATGCTGTCTCGCAGTCCAATTTTGCCTCCAAGCATCGGAGTCACCTAGTGCAG | 8600 fluorescence intensity (a.u.) |
| CACCGCCGCGTCGTCCCGCGTCTCTCCTCACCTCTCGTCTCGGAGTCACCTAGTGCAG | 8200 fluorescence intensity (a.u.) |
| CGACTCCGACCTCTGCTCTCTTCCTTTTACACCCCATATCCGGAGTCACCTAGTGCAG | 11100 fluorescence intensity (a.u.) |
| TGCTCATTAACAACAACTTGGTTCTGGAGTCCATCCTCTCCGGAGTCACCTAGTGCAG | 9850 fluorescence intensity (a.u.) |

| Sequence | binding signal |
| --- | --- |
| CAGCTCTGTTCTTCATCCAACCGATAGTATGCCAACTGATCGGAGTCACCTAGTGCAG | 8190 fluorescence intensity (a.u.) |
| CTTTGCATCAAATCTGGCCGAATCTTTCTCGATCTCCCAACGGAGTCACCTAGTGCAG | 10100 fluorescence intensity (a.u.) |
| GCCAATCCCCATCGACCGTCACCCGCACGTCTTCCGCGGCCGGAGTCACCTAGTGCAG | 10100 fluorescence intensity (a.u.) |
| GGTTCTTGCTGCCATGGTTAAGGAGTGGGAGGTTTAGAGTCGGAGTCACCTAGTGCAG | 8240 fluorescence intensity (a.u.) |
| CTTTTCATTCTTTATTTTTTCCTTTGCATGTTCTACAACACGGAGTCACCTAGTGCAG | 12900 fluorescence intensity (a.u.) |
| GACTACCGATATTTTCCTTTCGTTGTTTTCCCCTGTTACACGGAGTCACCTAGTGCAG | 14700 fluorescence intensity (a.u.) |
| CACTCTTACCTATACACCATTTAATAAGAGACATTATAGTCGGAGTCACCTAGTGCAG | 8170 fluorescence intensity (a.u.) |
| CTTCCCCGCCGCCTCCACGCACTCCTCCCACGCCACGAACCGGAGTCACCTAGTGCAG | 8880 fluorescence intensity (a.u.) |
| GGCTGCCACCACTCGATCTCTCTTATCGGAGCATTGCCGGCGGAGTCACCTAGTGCAG | 8480 fluorescence intensity (a.u.) |
| AGTGATGCTTAGTTCTCCGATATGACTTCATTTCTGGCATCGGAGTCACCTAGTGCAG | 8040 fluorescence intensity (a.u.) |
| GTGAATAGTTATCCTTGTCCAGTATATGTTTGTTCTTTCGCGGAGTCACCTAGTGCAG | 12400 fluorescence intensity (a.u.) |
| TTACTTTGTGTTAGGTAATCCATTTGTCTGTACCCTCATACGGAGTCACCTAGTGCAG | 8080 fluorescence intensity (a.u.) |
| GACTTTCTCATATTTAACACGTGACTCTCTATTCTTCCACCGGAGTCACCTAGTGCAG | 11900 fluorescence intensity (a.u.) |
| CGCCGTCGTCGACCTGGAGCTTCTCGGCGATCTCCTCGAACGGAGTCACCTAGTGCAG | 9210 fluorescence intensity (a.u.) |
| AACATGAGTCAAAGCTACTCCATCTTCATGTCCCAATCCCCGGAGTCACCTAGTGCAG | 8080 fluorescence intensity (a.u.) |
| ATCACTTCCTTATGGTGGATCCCGTCGAGCCCAACCCAAACGGAGTCACCTAGTGCAG | 8810 fluorescence intensity (a.u.) |
| CACTGACGCGCCCCTCCACCTCCCGTAGTTCTTCCGTCCCCGGAGTCACCTAGTGCAG | 9380 fluorescence intensity (a.u.) |
| GCCTTTCATCTTCATTCATTCCACCGTGCTTTGCAGCTGACGGAGTCACCTAGTGCAG | 11900 fluorescence intensity (a.u.) |
| CTTTCCATTCTCTGGAAGCAAATTGCGCTCTCTGGATCTTCGGAGTCACCTAGTGCAG | 9250 fluorescence intensity (a.u.) |
| CATCGCCGCCGCCGCCGGTATCTCGCTGACCTTTCCTCTCCGGAGTCACCTAGTGCAG | 8400 fluorescence intensity (a.u.) |
| TCATTTCCCACCATATTTCTCATCTCGTGGTTGGGGATCCCGGAGTCACCTAGTGCAG | 8780 fluorescence intensity (a.u.) |

No new results follow: entries from further up.

| Sequence | binding signal |
| --- | --- |
| AGTGATGCTTAGTTCTCCGATATGACTTCATTTCTGGCATCGGAGTCACCTAGTGCAG | 8040 fluorescence intensity (a.u.) |
| GTGAATAGTTATCCTTGTCCAGTATATGTTTGTTCTTTCGCGGAGTCACCTAGTGCAG | 12400 fluorescence intensity (a.u.) |
| TTACTTTGTGTTAGGTAATCCATTTGTCTGTACCCTCATACGGAGTCACCTAGTGCAG | 8080 fluorescence intensity (a.u.) |
| GACTTTCTCATATTTAACACGTGACTCTCTATTCTTCCACCGGAGTCACCTAGTGCAG | 11900 fluorescence intensity (a.u.) |
| CGCCGTCGTCGACCTGGAGCTTCTCGGCGATCTCCTCGAACGGAGTCACCTAGTGCAG | 9210 fluorescence intensity (a.u.) |
| AACATGAGTCAAAGCTACTCCATCTTCATGTCCCAATCCCCGGAGTCACCTAGTGCAG | 8080 fluorescence intensity (a.u.) |
| ATCACTTCCTTATGGTGGATCCCGTCGAGCCCAACCCAAACGGAGTCACCTAGTGCAG | 8810 fluorescence intensity (a.u.) |
| CACTGACGCGCCCCTCCACCTCCCGTAGTTCTTCCGTCCCCGGAGTCACCTAGTGCAG | 9380 fluorescence intensity (a.u.) |
| GCCTTTCATCTTCATTCATTCCACCGTGCTTTGCAGCTGACGGAGTCACCTAGTGCAG | 11900 fluorescence intensity (a.u.) |
| CTTTCCATTCTCTGGAAGCAAATTGCGCTCTCTGGATCTTCGGAGTCACCTAGTGCAG | 9250 fluorescence intensity (a.u.) |
| CATCGCCGCCGCCGCCGGTATCTCGCTGACCTTTCCTCTCCGGAGTCACCTAGTGCAG | 8400 fluorescence intensity (a.u.) |
